From publication PMC10653890, “The morphogenic protein CopD controls the spatio-temporal dynamics of PBP1a and PBP2b in Streptococcus pneumoniae” (mBio, 2023)
No constants are given. Whether binding was seen depends on the method and setting. Binding can be weak; no strength is given. For part of these data: Sequences can lack the tags named with a protein. For part of these data: Binding seen in cells or lysates may run through a third protein.

Tests used:
[1] = molecular target: CopD (Spr1400), T25 fusion for bacterial two-hybrid (Streptococcus pneumoniae); experiment: two-hybrid; BACTH (bacterial adenylate cyclase two-hybrid) in E. coli BTH101; T25 fused to the N-terminus of CopD, T18 to the N-terminus of the PBPs and derivatives; LB agar with IPTG 0.5 mM and X-gal, room temperature, blue colonies at 24-72 hours
[2] = molecular target: CopD-sfGFP (Streptococcus pneumoniae); experiment: co-IP; GFP-TRAP resin on Triton X-100 extract of S. pneumoniae copD-sfGFP cells (PcomX-sfGFP cells as control); immunoblot with anti-GFP, anti-PBP1a and anti-PBP2b antibodies

B1: PBP1a, T18 fusion for bacterial two-hybrid (protein, UniProt Q8DR59 1-719)
chain: MNKPTILRLIKYLSISFLSLVIAAIVLGGGVFFYYVSKAPSLSESKLVATTSSKIYDNKNQLIADLGSERRVNAQANDIPTDLVKAIVSIEDHRFFDHRGIDTIRILGAFLRNLQSNSLQGGSALTQQLIKLTYFSTSTSDQTISRKAQEAWLAIQLEQKATKQEILTYYINKVYMSNGNYGMQTAAQNYYGKDLNNLSLPQLALLAGMPQAPNQYDPYSHPEAAQDRRNLVLSEMKNQGYISAEQYEKAVNTPITDGLQSLKSASNYPAYMDNYLKEVINQVEEETGYNLLTTGMDVYTNVDQEAQKHLWDIYNTDEYVAYPDDELQVASTIVDVSNGKVIAQLGARHQSSNVSFGINQAVETNRDWGSTMKPITDYAPALEYGVYESTATIVHDEPYNYPGTNTPVYNWDRGYFGNITLQYALQQSRNVPAVETLNKVGLNRAKTFLNGLGIDYPSIHYSNAISSNTTESDKKYGASSEKMAAAYAAFANGGTYYKPMYIHKVVFSDGSEKEFSNVGTRAMKETTAYMMTDMMKTVLSYGTGRNAYLAWLPQAGKTGTSNYTDEEIENHIKTSQFVAPDELFAGYTRKYSMAVWTGYSNRLTPLVGNGLTVAAKVYRSMMTYLSEGSNPEDWNIPEGLYRNGEFVFKNGARSTWSSPAPQQPPSTESSSSSSDSSTSQSSSTTPSTNNSTTTNPNNNTQQSNTTPDQQNQNPQPAQP
- binding [1]: binds

B2: PBP1a in S. pneumoniae cells (co-immunoprecipitation) (protein, UniProt Q8DR59 1-719)
chain: B1 chain
- binding [2]: binds

B3: PBP2a, fusion for bacterial two-hybrid (protein, UniProt Q8DNB6 1-731)
chain: MKLDKLFEKFLSLFKKETSELEDSDSTILRRSRSDRKKLAQVGPIRKFWRRYHLTKIILILGLSAGLLVGIYLFAVAKSTNVNDLQNALKTRTLIFDREEKEAGALSGQKGTYVELTDISKNLQNAVIATEDRSFYKNDGINYGRFFLAIVTAGRSGGGSTITQQLAKNAYLSQDQTVERKAKEFFLALELSKKYSKEQILTMYLNNAYFGNGVWGVEDASKKYFGVSASEVSLDQAATLAGMLKGPELYNPLNSVEDSTNRRDTVLQNMVAAGYIDKNQETEAAEVDMTSQLHDKYEGKISDYRYPSYFDAVVNEAVSKYNLTEEEIVNNGYRIYTELDQNYQANMQIVYENTSLFPRAEDGTFAQSGSVALEPKTGGVRGVVGQVADNDKTGFRNFNYATQSKRSPGSTIKPLVVYTPAVEAGWALNKQLDNHTMQYDSYKVDNYAGIKTSREVPMYQSLAESLNLPAVATVNDLGVDKAFEAGEKFGLNMEKVDRVLGVALGSGVETNPLQMAQAYAAFANEGLMPEAHFISRIENASGQVIASHKNSQKRVIDKSVADKMTSMMLGTFTNGTGISSSPADYVMAGKTGTTEAVFNPEYTSDQWVIGYTPDVVISHWLGFPTTDENHYLAGSTSNGAAHVFRNIANTILPYTPGSTFTVENAYKQNGIAPANTKRQVQTNDNSQTDDNLSDIRGRAQSLVDEASRAISDAKIKEKAQTIWDSIVNLFR
- binding [1]: no binding
